Data published in article PMC6639074.

Chains of the proteins cited; added tags and fusions are not shown. Lines headed by an entry give the natural chain unless they say otherwise; changes in a name come on top. A line that says so, or that is headed by a name, gives the form on record, which may keep a tag or linker.
Rab5A(Q79L)-BirA*-HA-MAO (P20339, form named): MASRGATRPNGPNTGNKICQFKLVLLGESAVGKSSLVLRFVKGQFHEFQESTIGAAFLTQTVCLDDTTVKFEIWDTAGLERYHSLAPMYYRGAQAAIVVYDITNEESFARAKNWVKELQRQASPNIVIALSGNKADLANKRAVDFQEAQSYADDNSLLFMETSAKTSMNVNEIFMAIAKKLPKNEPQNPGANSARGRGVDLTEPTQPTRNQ
UniProt P20340: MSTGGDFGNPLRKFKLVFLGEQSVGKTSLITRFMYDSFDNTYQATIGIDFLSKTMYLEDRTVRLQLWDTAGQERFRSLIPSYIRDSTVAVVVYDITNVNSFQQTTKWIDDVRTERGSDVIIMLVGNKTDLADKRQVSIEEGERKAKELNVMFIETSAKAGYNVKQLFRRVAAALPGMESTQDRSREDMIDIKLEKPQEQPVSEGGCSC
UniProt P61586: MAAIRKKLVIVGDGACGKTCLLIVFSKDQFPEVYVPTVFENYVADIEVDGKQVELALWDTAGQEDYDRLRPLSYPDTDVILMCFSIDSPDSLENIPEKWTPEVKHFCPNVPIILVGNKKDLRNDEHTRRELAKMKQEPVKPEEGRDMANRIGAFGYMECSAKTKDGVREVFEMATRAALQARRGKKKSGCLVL

Columns and labels:
Experiment in all cases: proximity labelling; MitoID: GTPase-BirA*-HA-MAO chimera on mitochondria of transiently transfected HEK293T cells, 50 uM biotin 18 h, streptavidin beads, mass spectrometry, biological triplicates; hits by WD scores and volcano plots against the GDP-locked forms
[1] = molecular target: Rab5A(Q79L)-BirA*-HA-MAO (human) (UniProt P20339)
[2] = molecular target: Rab11A(S25N)-BirA*-HA-MAO (human)
[3] = molecular target: Rab11A(Q69L)-BirA*-HA-MAO (human)
[4] = molecular target: Rab6A(Q72L)-BirA*-HA-MAO (human) (UniProt P20340)
[5] = molecular target: RhoA(Q63L)-BirA*-HA-MAO (human) (UniProt P61586)

B1: OSBPL11 (protein, UniProt Q9BXB4 1-747)
chain: MQGGEPVSTMKVSESEGKLEGQATAVTPNKNSSCGGGISSSSSSRGGSAKGWQYSDHMENVYGYLMKYTNLVTGWQYRFFVLNNEAGLLEYFVNEQSRNQKPRGTLQLAGAVISPSDEDSHTFTVNAASGEQYKLRATDAKERQHWVSRLQICTQHHTEAIGKNNPPLKSRSFSLASSSNSPISQRRPSQNAISFFNVGHSKLQSLSKRTNLPPDHLVEVREMMSHAEGQQRDLIRRIECLPTSGHLSSLDQDLLMLKATSMATMNCLNDCFHILQLQHASHQKGSLPSGTTIEWLEPKISLSNHYKNGADQPFATDQSKPVAVPEEQPVAESGLLAREPEEINADDEIEDTCDHKEDDLGAVEEQRSVILHLLSQLKLGMDLTRVVLPTFILEKRSLLEMYADFMSHPDLFIAITNGATAEDRMIRFVEYYLTSFHEGRKGAIAKKPYNPIIGETFHCSWKMPKSEVASSVFSSSSTQGVTNHAPLSGESLTQVGSDCYTVRFVAEQVSHHPPVSGFYAECTERKMCVNAHVWTKSKFLGMSIGVTMVGEGILSLLEHGEEYTFSLPCAYARSILTVPWVELGGKVSVNCAKTGYSASITFHTKPFYGGKLHRVTAEVKHNITNTVVCRVQGEWNSVLEFTYSNGETKYVDLTKLAVTKKRVRPLEKQDPFESRRLWKNVTDSLRESEIDKATEHKHTLEERQRTEERHRTETGTPWKTKYFIKEGDGWVYHKPLWKIIPTTQPAE
binding [1]: binds | binding [2]: binds | binding [3]: binds

B2: INPP5F (protein, UniProt Q9Y2H2 1-1132)
chain: MELFQAKDHYILQQGERALWCSRRDGGLQLRPATDLLLAWNPICLGLVEGVIGKIQLHSDLPWWLILIRQKALVGKLPGDHEVCKVTKIAVLSLSEMEPQDLELELCKKHHFGINKPEKIIPSPDDSKFLLKTFTHIKSNVSAPNKKKVKESKEKEKLERRLLEELLKMFMDSESFYYSLTYDLTNSVQRQSTGERDGRPLWQKVDDRFFWNKYMIQDLTEIGTPDVDFWIIPMIQGFVQIEELVVNYTESSDDEKSSPETPPQESTCVDDIHPRFLVALISRRSRHRAGMRYKRRGVDKNGNVANYVETEQLIHVHNHTLSFVQTRGSVPVFWSQVGYRYNPRPRLDRSEKETVAYFCAHFEEQLNIYKKQVIINLVDQAGREKIIGDAYLKQVLLFNNSHLTYVSFDFHEHCRGMKFENVQTLTDAIYDIILDMKWCWVDEAGVICKQEGIFRVNCMDCLDRTNVVQAAIARVVMEQQLKKLGVMPPEQPLPVKCNRIYQIMWANNGDSISRQYAGTAALKGDFTRTGERKLAGVMKDGVNSANRYYLNRFKDAYRQAVIDLMQGIPVTEDLYSIFTKEKEHEALHKENQRSHQELISQLLQSYMKLLLPDDEKFHGGWALIDCDPSLIDATHRDVDVLLLLSNSAYYVAYYDDEVDKVNQYQRLSLENLEKIEIGPEPTLFGKPKFSCMRLHYRYKEASGYFHTLRAVMRNPEEDGKDTLQCIAEMLQITKQAMGSDLPIIEKKLERKSSKPHEDIIGIRSQNQGSLAQGKNFLMSKFSSLNQKVKQTKSNVNIGNLRKLGNFTKPEMKVNFLKPNLKVNLWKSDSSLETMENTGVMDKVQAESDGDMSSDNDSYHSDEFLTNSKSDEDRQLANSLESVGPIDYVLPSCGIIASAPRLGSRSQSLSSTDSSVHAPSEITVAHGSGLGKGQESPLKKSPSAGDVHILTGFAKPMDIYCHRFVQDAQNKVTHLSETRSVSQQASQERNQMTNQVSNETQSESTEQTPSRPSQLDVSLSATGPQFLSVEPAHSVASQKTPTSASSMLELETGLHVTPSPSESSSSRAVSPFAKIRSSMVQVASITQAGLTHGINFAVSKVQKSPPEPEIINQVQQNELKKMFIQCQTRIIQI
binding [2]: binds | binding [4]: binds | binding [3]: binds

B3: RTKN2 (protein, UniProt Q8IZC4 1-609)
chain: MEGPSLRGPALRLAGLPTQQDCNIQEKIDLEIRMREGIWKLLSLSTQKDQVLHAVKNLMVCNARLMAYTSELQKLEEQIANQTGRCDVKFESKERTACKGKIAISDIRIPLMWKDSDHFSNKERSRRYAIFCLFKMGANVFDTDVVNVDKTITDICFENVTIFNEAGPDFQIKVEVYSCCTEESSITNTPKKLAKKLKTSISKATGKKISSVLQEEDDEMCLLLSSAVFGVKYNLLAHTTLTLESAEDSFKTHNLSINGNEESSFWLPLYGNMCCRLVAQPACMAEDAFAGFLNQQQMVEGLISWRRLYCVLRGGKLYCFYSPEEIEAKVEPALVVPINKETRIRAMDKDAKKRIHNFSVINPVPGQAITQIFAVDNREDLQKWMEAFWQHFFDLSQWKHCCEELMKIEIMSPRKPPLFLTKEATSVYHDMSIDSPMKLESLTDIIQKKIEETNGQFLIGQHEESLPPPWATLFDGNHQMVIQKKVLYPASEPLHDEKGKKRQAPLPPSDKLPFSLKSQSNTDQLVKDNWGKTSVSQTSSLDTKLSTLMHHLQKPMAAPRKLLPARRNRLSDGEHTDTKTNFEAKPVPAPRQKSIKDILDPRSWLQAQV
binding [5]: binds

B4: INPPL1/SHIP (protein, UniProt O15357 1-1258)
chain: MASACGAPGPGGALGSQAPSWYHRDLSRAAAEELLARAGRDGSFLVRDSESVAGAFALCVLYQKHVHTYRILPDGEDFLAVQTSQGVPVRRFQTLGELIGLYAQPNQGLVCALLLPVEGEREPDPPDDRDASDGEDEKPPLPPRSGSTSISAPTGPSSPLPAPETPTAPAAESAPNGLSTVSHDYLKGSYGLDLEAVRGGASHLPHLTRTLATSCRRLHSEVDKVLSGLEILSKVFDQQSSPMVTRLLQQQNLPQTGEQELESLVLKLSVLKDFLSGIQKKALKALQDMSSTAPPAPQPSTRKAKTIPVQAFEVKLDVTLGDLTKIGKSQKFTLSVDVEGGRLVLLRRQRDSQEDWTTFTHDRIRQLIKSQRVQNKLGVVFEKEKDRTQRKDFIFVSARKREAFCQLLQLMKNKHSKQDEPDMISVFIGTWNMGSVPPPKNVTSWFTSKGLGKTLDEVTVTIPHDIYVFGTQENSVGDREWLDLLRGGLKELTDLDYRPIAMQSLWNIKVAVLVKPEHENRISHVSTSSVKTGIANTLGNKGAVGVSFMFNGTSFGFVNCHLTSGNEKTARRNQNYLDILRLLSLGDRQLNAFDISLRFTHLFWFGDLNYRLDMDIQEILNYISRKEFEPLLRVDQLNLEREKHKVFLRFSEEEISFPPTYRYERGSRDTYAWHKQKPTGVRTNVPSWCDRILWKSYPETHIICNSYGCTDDIVTSDHSPVFGTFEVGVTSQFISKKGLSKTSDQAYIEFESIEAIVKTASRTKFFIEFYSTCLEEYKKSFENDAQSSDNINFLKVQWSSRQLPTLKPILADIEYLQDQHLLLTVKSMDGYESYGECVVALKSMIGSTAQQFLTFLSHRGEETGNIRGSMKVRVPTERLGTRERLYEWISIDKDEAGAKSKAPSVSRGSQEPRSGSRKPAFTEASCPLSRLFEEPEKPPPTGRPPAPPRAAPREEPLTPRLKPEGAPEPEGVAAPPPKNSFNNPAYYVLEGVPHQLLPPEPPSPARAPVPSATKNKVAITVPAPQLGHHRHPRVGEGSSSDEESGGTLPPPDFPPPPLPDSAIFLPPSLDPLPGPVVRGRGGAEARGPPPPKAHPRPPLPPGPSPASTFLGEVASGDDRSCSVLQMAKTLSEVDYAPAGPARSALLPGPLELQPPRGLPSDYGRPLSFPPPRIRESIQEDLAEEAPCLQGGRASGLGEAGMSAWLRAIGLERYEEGLVHNGWDDLEFLSDITEEDLEEAGVQDPAHKRLLLDTLQLSK
binding [5]: binds

B5: ABR (protein, UniProt Q12979 1-859)
chain: MEPLSHRGLPRLSWIDTLYSNFSYGTDEYDGEGNEEQKGPPEGSETMPYIDESPTMSPQLSARSQGGGDGVSPTPPEGLAPGVEAGKGLEMRKLVLSGFLASEEIYINQLEALLLPMKPLKATATTSQPVLTIQQIETIFYKIQDIYEIHKEFYDNLCPKVQQWDSQVTMGHLFQKLASQLGVYKAFVDNYKVALETAEKCSQSNNQFQKISEELKVKGPKDSKDSHTSVTMEALLYKPIDRVTRSTLVLHDLLKHTPVDHPDYPLLQDALRISQNFLSSINEDIDPRRTAVTTPKGETRQLVKDGFLVEVSESSRKLRHVFLFTDVLLCAKLKKTSAGKHQQYDCKWYIPLADLVFPSPEESEASPQVHPFPDHELEDMKMKISALKSEIQKEKANKGQSRAIERLKKKMFENEFLLLLNSPTIPFRIHNRNGKSYLFLLSSDYERSEWREAIQKLQKKDLQAFVLSSVELQVLTGSCFKLRTVHNIPVTSNKDDDESPGLYGFLHVIVHSAKGFKQSANLYCTLEVDSFGYFVSKAKTRVFRDTAEPKWDEEFEIELEGSQSLRILCYEKCYDKTKVNKDNNEIVDKIMGKGQIQLDPQTVETKNWHTDVIEMNGIKVEFSMKFTSRDMSLKRTPSKKQTGVFGVKISVVTKRERSKVPYIVRQCVEEVEKRGIEEVGIYRISGVATDIQALKAVFDANNKDILLMLSDMDINAIAGTLKLYFRELPEPLLTDRLYPAFMEGIALSDPAAKENCMMHLLRSLPDPNLITFLFLLEHLKRVAEKEPINKMSLHNLATVFGPTLLRPSEVESKAHLTSAADIWSHDVMAQVQVLLYYLQHPPISFAELKRNTLYFSTDV
binding [5]: binds

No constants are given. Whether binding was seen depends on the method and setting. In cells and extracts the contact can be indirect. Here binding means that the protein was enriched with, or labelled near, the bait; the list need not be complete.
